Measurements: PubChem BioAssay AID256 (DTP/NCI, 2004)
The list does not hold the whole screen: it gathers tests that were run many times, whatever their T/C, doses with no T/C, and many T/C values between a quarter and a half above the control. Other doses and runs of a compound stand elsewhere. T/C: endpoint of the treated group in % of that of the vehicle group. Some entries give survivors of the animals treated and no T/C: the source files T/C as zero there, which appears to mark a toxic dose or a test without result, not a measured value. Some doses without a T/C left all or most animals alive at the check, yet need not have been tolerated: survival well below the control is almost never listed, so the zero probably covers shortened survival too. Counts of survivors are from the toxicity check (mostly the fifth day) where no day follows; animals may have died later. Schedule codes are those of the source, read here as Q, the interval in days (D) or hours (H), X, the number of doses. Some entries hold several experiments; the results are listed from low to high. Some schedule codes hold Z or #, which are not explained here. For survival time, the PubChem record calls one and a half times the control and up active, and a quarter to a half above the control has no call in these data; cut-offs in other NCI protocols can differ. Some T/C values are followed by the survivors on the day toxicity was checked, most often the fifth; without a count, all were alive then.

Tested on: CD2F1 mice, L1210 leukemia ip, survival T/C
Test: NCI In Vivo Anticancer Drug Screen. Data for tumor model L1210 Leukemia (intraperitoneal) in CD2F1 (CDF1) mice
Conditions: higher T/C = longer survival
Method in brief: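 Mice carrying a transplanted tumor received test compound or vehicle alone. The value is the measurement in the treated group divided by that in the vehicle-treated control group.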

[1] = T/C endpoint: mean survival time, dose: 100.0 mg/kg/injection, schedule: Q01DX001 (ip), vehicle: saline with Tween-80
[2] = T/C endpoint: mean survival time, dose: 4.0 mg/kg/injection, schedule: Q01DX001 (ip), vehicle: saline
[3] = T/C endpoint: mean survival time, dose: 400.0 mg/kg/injection, schedule: Q01DX009 (ip), vehicle: saline with Tween-80
[4] = T/C endpoint: mean survival time, dose: 400.0 mg/kg/injection, schedule: Q04DX003 (ip), vehicle: saline with Tween-80
[5] = T/C endpoint: mean survival time, dose: 400.0 mg/kg/injection, schedule: Q01DX001 (ip), vehicle: saline with Tween-80
[6] = T/C endpoint: mean survival time, dose: 400.0 mg/kg/injection, schedule: Q04DX002 (ip), vehicle: saline with Tween-80
[7] = T/C endpoint: mean survival time, dose: 100.0 mg/kg/injection, schedule: Q01DX009 (ip), vehicle: saline with Tween-80
[8] = T/C endpoint: mean survival time, dose: 200.0 mg/kg/injection, schedule: Q01DX009 (ip), vehicle: saline with Tween-80
[9] = T/C endpoint: mean survival time, dose: 400.0 mg/kg/injection, schedule: Q04DX003 (ip), vehicle: Klucel (hydroxypropylcellulose) (HPC)
[10] = T/C endpoint: mean survival time, dose: 200.0 mg/kg/injection, schedule: Q01DX001 (ip), vehicle: saline with Tween-80
[11] = T/C endpoint: mean survival time, dose: 50.0 mg/kg/injection, schedule: Q04DX003 (ip), vehicle: saline with Tween-80
[12] = T/C endpoint: mean survival time, dose: 100.0 mg/kg/injection, schedule: Q04DX003 (ip), vehicle: saline with Tween-80
[13] = T/C endpoint: mean survival time, dose: 200.0 mg/kg/injection, schedule: Q04DX003 (ip), vehicle: saline with Tween-80
[14] = T/C endpoint: mean survival time, dose: 100.0 mg/kg/injection, schedule: Q04DX002 (ip), vehicle: saline with Tween-80

Oc1ccccc1/C=N/c1nc(-c2ccccc2)cs1.[Co].[O-]c1ccccc1/C=N/c1nc(-c2ccccc2)cs1
survivor count [1]: 3 of 3

CS(=O)(=O)OCCN(CCOS(C)(=O)=O)c1ccc(N=O)cc1
T/C (T/C endpoint: mean survival time, dose: 0.06 mg/kg/injection, schedule: Q03HX008 (ip), vehicle: saline): 139 % of control
T/C (T/C endpoint: mean survival time, dose: 0.13 mg/kg/injection, schedule: Q03HX008 (ip), vehicle: saline): 133 % of control
T/C (T/C endpoint: mean survival time, dose: 0.25 mg/kg/injection, schedule: Q01DX005 (ip), vehicle: saline): 134 % of control
T/C (T/C endpoint: mean survival time, dose: 0.25 mg/kg/injection, schedule: Q03HX008 (ip), vehicle: saline): 126 % of control
T/C (T/C endpoint: mean survival time, dose: 0.5 mg/kg/injection, schedule: Q01DX001 (ip), vehicle: saline): 142 % of control
T/C (T/C endpoint: mean survival time, dose: 0.5 mg/kg/injection, schedule: Q03HX008 (ip), vehicle: saline): 136 % of control
T/C (T/C endpoint: mean survival time, dose: 0.5 mg/kg/injection, schedule: Q04DX003 (ip), vehicle: saline): 131 % of control
T/C (T/C endpoint: mean survival time, dose: 1.0 mg/kg/injection, schedule: Q01DX001 (ip), vehicle: saline): 132 and 133 % of control
T/C (T/C endpoint: mean survival time, dose: 1.0 mg/kg/injection, schedule: Q01DX009 (ip), vehicle: saline): 131 % of control
survivor count (T/C endpoint: mean survival time, dose: 1.0 mg/kg/injection, schedule: Q03HX008 (ip), vehicle: saline): 0 of 10
T/C (T/C endpoint: mean survival time, dose: 2.0 mg/kg/injection, schedule: Q01DX001 (ip), vehicle: saline): 131 % of control
survivor count (T/C endpoint: mean survival time, dose: 2.0 mg/kg/injection, schedule: Q01DX005 (ip), vehicle: saline): 3 of 10
survivor count (T/C endpoint: mean survival time, dose: 2.0 mg/kg/injection, schedule: Q01DX009 (ip), vehicle: saline): 1 of 10
T/C [2]: 145 % of control
survivor count [2]: 2 of 10
survivor count (T/C endpoint: mean survival time, dose: 4.0 mg/kg/injection, schedule: Q01DX005 (ip), vehicle: saline): 0 of 10
survivor count (T/C endpoint: mean survival time, dose: 4.0 mg/kg/injection, schedule: Q01DX009 (ip), vehicle: saline): 1 of 10
survivor count (T/C endpoint: mean survival time, dose: 4.0 mg/kg/injection, schedule: Q04DX003 (ip), vehicle: saline): 4 of 10
survivor count (T/C endpoint: mean survival time, dose: 8.0 mg/kg/injection, schedule: Q01DX001 (ip), vehicle: saline): 0 of 10
survivor count (T/C endpoint: mean survival time, dose: 8.0 mg/kg/injection, schedule: Q04DX003 (ip), vehicle: saline): 0 of 10
T/C (T/C endpoint: mean survival time, dose: 3.8 micrograms/kg/injection, schedule: Q03HX024 (ip), vehicle: saline): 125 % of control [9 of 10 alive]
T/C (T/C endpoint: mean survival time, dose: 16.3 micrograms/kg/injection, schedule: Q03HX024 (ip), vehicle: saline): 143 % of control
survivor count (T/C endpoint: mean survival time, dose: 62.5 micrograms/kg/injection, schedule: Q03HX024 (ip), vehicle: saline): 3 of 10

COC(=O)C(Br)CCC(Br)C(=O)OC (stereo not drawn)
survivor count [3]: 3 of 6

CCC1(C)C(C#N)C(=O)NC(=O)C1C#N (stereo not drawn)
survivor count (T/C endpoint: mean survival time, dose: 200.0 mg/kg/injection, schedule: Q01DX009 (ip), vehicle: saline sonified): 2 of 6
survivor count [4]: 2 of 6

O=C1C=C(c2ccccc2)OC(=O)C1C(=O)c1ccccc1 (stereo not drawn)
survivor count [5]: 0 of 3

COc1c(NC(=O)Nc2cccc(Cl)c2)cccc1[N+](=O)[O-]
survivor count [6]: 3 of 3

NC(=O)c1c(Br)n(C2OC(CO)C(O)C2O)c2ncnc(N)c12 (stereo not drawn)
T/C [7]: 137 % of control [4 of 6 alive]
T/C [8]: 135 % of control [5 of 6 alive]
survivor count [3]: 0 of 6

Cc1csc2ncn(C3OC(CO)C(O)C3O)c(=O)c12 (stereo not drawn)
survivor count [7]: 4 of 5
survivor count [8]: 3 of 5
survivor count [3]: 0 of 5

CC(=O)Nc1cccc([N+](=O)[O-])c1
survivor count [9]: 6 of 6

Cc1ccc(C(SCC(N)C(=O)O)(c2ccc(C)cc2)c2ccc(C)cc2)cc1 (stereo not drawn)
T/C (T/C endpoint: mean survival time, dose: 25.0 mg/kg/injection, schedule: Q01DX009 (ip), vehicle: saline): 125 % of control
T/C (T/C endpoint: mean survival time, dose: 50.0 mg/kg/injection, schedule: Q01DX009 (ip), vehicle: saline): 147 % of control

S=P(N1CCOCC1)(N1CC1)N1CC1
T/C (T/C endpoint: mean survival time, dose: 10.0 mg/kg/injection, schedule: Q01DX009 (ip), vehicle: saline): 132 % of control
T/C (T/C endpoint: mean survival time, dose: 20.0 mg/kg/injection, schedule: Q03DX003 (ip), vehicle: saline): 148 % of control
T/C (T/C endpoint: mean survival time, dose: 20.0 mg/kg/injection, schedule: Q04DX003 (ip), vehicle: saline): 138 % of control
survivor count (T/C endpoint: mean survival time, dose: 50.0 mg/kg/injection, schedule: Q01DX Z (ip), vehicle: carboxymethylcellulose (CMC)): 6 of 6
survivor count (T/C endpoint: mean survival time, dose: 100.0 mg/kg/injection, schedule: Q01DX Z (ip), vehicle: carboxymethylcellulose (CMC)): 6 of 6

CO/N=C(/c1ccccc1)c1cccc[n+]1C
survivor count (T/C endpoint: mean survival time, dose: 150.0 mg/kg/injection, schedule: Q01DX001 (ip), vehicle: saline): 0 of 6
survivor count (T/C endpoint: mean survival time, dose: 300.0 mg/kg/injection, schedule: Q01DX001 (ip), vehicle: saline): 0 of 6

CC(=O)NC1CCC(C(C)C)CC1 (stereo not drawn)
survivor count [1]: 1 of 6
survivor count [10]: 0 of 6

CC(C)(C)c1cc([N+](=O)[O-])cc([N+](=O)[O-])c1O
survivor count (T/C endpoint: mean survival time, dose: 12.5 mg/kg/injection, schedule: Q04DX003 (ip), vehicle: saline with Tween-80): 6 of 6
survivor count (T/C endpoint: mean survival time, dose: 25.0 mg/kg/injection, schedule: Q04DX003 (ip), vehicle: saline with Tween-80): 2 of 6
survivor count [11]: 0 of 6
survivor count [12]: 0 of 6
survivor count [13]: 0 of 6
survivor count [4]: 6 of 6

CCOC(=O)c1ccc(NC(=O)Oc2cc3ccccc3cc2C(=O)Nc2ccccc2)cc1
survivor count (T/C endpoint: mean survival time, dose: 25.0 mg/kg/injection, schedule: Q04DX002 (ip), vehicle: saline with Tween-80): 3 of 3
survivor count [11]: 6 of 6
T/C [14]: 86, 87, 105 % of control
survivor count [14]: 3 of 3
survivor count [12]: 6 of 6
survivor count [10]: 6 of 6
survivor count (T/C endpoint: mean survival time, dose: 200.0 mg/kg/injection, schedule: Q04DX002 (ip), vehicle: saline with Tween-80): 3 of 3
survivor count [6]: 3 of 3 and 6 of 6

CC#CC(=O)SCCNC(=O)CCNC(=O)CC(C)(C)C
survivor count [13]: 2 of 6

CCCCCOC(=O)CC(N)C(=O)OCCCCC (stereo not drawn)
survivor count [4]: 3 of 6

N#Cc1cnn2ccn(C3OC(COC(=O)c4ccccc4)C(OC(=O)c4ccccc4)C3OC(=O)c3ccccc3)c12 (stereo not drawn)
survivor count (T/C endpoint: median survival time, dose: 400.0 mg/kg/injection, schedule: Q01DX005 (ip), vehicle: saline with Tween-80): 6 of 6

CS(=O)(=O)c1ccncc1
survivor count (T/C endpoint: mean survival time, dose: 400.0 mg/kg/injection, schedule: Q04DX003 (ip), vehicle: saline sonified): 3 of 6

Cn1c2c(c3ccccc31)C(=O)CC2(C)C
survivor count [13]: 4 of 6
survivor count [5]: 1 of 6

CN(C)c1ccc(C2OC3(CCCCC3)C[N+]23CCCC3)cc1 (stereo not drawn)
survivor count (T/C endpoint: mean survival time, dose: 25.0 mg/kg/injection, schedule: Q01DX009 (ip), vehicle: saline with Tween-80): 3 of 6
survivor count (T/C endpoint: mean survival time, dose: 50.0 mg/kg/injection, schedule: Q01DX009 (ip), vehicle: saline with Tween-80): 1 of 6
survivor count [7]: 0 of 6

N#C/C(=C\c1ccc(-c2ccccc2)cc1)c1ccccc1
survivor count [12]: 6 of 6

COc1cc(OC)c(/C=C/c2cc3c4ccccc4ccc3[n+](C)c2)c(OC)c1
survivor count [10]: 1 of 3
survivor count [5]: 1 of 3

NNC(=O)c1ccc(N)cc1
survivor count (T/C endpoint: mean survival time, dose: 200.0 mg/kg/injection, schedule: Q04DX003 (ip), vehicle: Klucel (hydroxypropylcellulose) (HPC)): 5 of 6
survivor count [9]: 0 of 6

COC(=O)c1ccc[n+](CCc2c[nH]c3ccccc23)c1
survivor count [7]: 6 of 6
survivor count [8]: 1 of 6
survivor count [5]: 0 of 6
